{"source": "PubChem BioAssay AID504804 (Drosophila RNAi Screening Center, 2011)", "screen": "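dsRNAs that improve Kc cell survival under doxorubicin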 (primary screen)", "cells": "Drosophila Kc cells", "reagents": "long dsRNA against Drosophila genes, 0.5 µg dsRNA per well", "duration": "96 h (48 h knock-down, then 48 h drug)", "challenge": "doxorubicin 5 µg/ml for 48 h, added 48 h after dsRNA", "measured": "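Luminescent ATP counts per replicate, not normalised, reflecting viable cells after 48 h dsRNA knock-down followed by 48 h of 5 µg/ml doxorubicin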", "direction": "raw ATP luminescence: higher = more viable cells, protection from doxorubicin", "rule for the call": "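z-score of 2 or more over plate mean in both duplicates, retained only when retests and separate dsRNAs confirm the protection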", "note": "The screen tested about 19,000 reagents; shown is an unselected part of those with a known target gene and a result. Of all reagents, 47 (0.25%) are marked active. 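Signals are raw, not normalised; exact z-scores behind calls not deposited; actives needed confirmation, so some wells reaching 2 SD are inactive.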 The numbers tell different reagents against one gene apart."}
{"gene": "CG31776", "dsRNA no.": 1, "raw ATP luminescence, replicate 1": 27470, "raw ATP luminescence, replicate 2": 35600, "call": "inactive"}
{"gene": "Cog7", "dsRNA no.": 1, "raw ATP luminescence, replicate 1": 52890, "raw ATP luminescence, replicate 2": 41100, "call": "inactive"}
{"gene": "nxf4", "dsRNA no.": 1, "raw ATP luminescence, replicate 1": 70707, "raw ATP luminescence, replicate 2": 55827, "call": "inactive"}
{"gene": "dj", "dsRNA no.": 1, "raw ATP luminescence, replicate 1": 50937, "raw ATP luminescence, replicate 2": 57057, "call": "inactive"}
{"gene": "CG6225", "dsRNA no.": 1, "raw ATP luminescence, replicate 1": 55077, "raw ATP luminescence, replicate 2": 49297, "call": "inactive"}
{"gene": "CG33640", "dsRNA no.": 1, "raw ATP luminescence, replicate 1": 2.69e5, "raw ATP luminescence, replicate 2": 3.07e5, "call": "inactive"}
{"gene": "CG14355", "dsRNA no.": 1, "raw ATP luminescence, replicate 1": 52720, "raw ATP luminescence, replicate 2": 30687, "call": "inactive"}
{"gene": "CG45002", "dsRNA no.": 1, "raw ATP luminescence, replicate 1": 3.06e5, "raw ATP luminescence, replicate 2": 3.19e5, "call": "inactive"}
{"gene": "Rat1", "dsRNA no.": 1, "raw ATP luminescence, replicate 1": 1.13e5, "raw ATP luminescence, replicate 2": 69693, "call": "inactive"}
{"gene": "CG1504", "dsRNA no.": 1, "raw ATP luminescence, replicate 1": 3.41e5, "raw ATP luminescence, replicate 2": 2.94e5, "call": "inactive"}
{"gene": "CG3511", "dsRNA no.": 1, "raw ATP luminescence, replicate 1": 76320, "raw ATP luminescence, replicate 2": 74473, "call": "inactive"}
{"gene": "Cpr65Ay", "dsRNA no.": 1, "raw ATP luminescence, replicate 1": 1.34e5, "raw ATP luminescence, replicate 2": 1.10e5, "call": "inactive"}
{"gene": "pcs", "dsRNA no.": 1, "raw ATP luminescence, replicate 1": 67663, "raw ATP luminescence, replicate 2": 47027, "call": "inactive"}
{"gene": "Dad", "dsRNA no.": 1, "raw ATP luminescence, replicate 1": 45597, "raw ATP luminescence, replicate 2": 53973, "call": "inactive"}
{"gene": "CG32100", "dsRNA no.": 1, "raw ATP luminescence, replicate 1": 62690, "raw ATP luminescence, replicate 2": 54693, "call": "inactive"}
{"gene": "CG32100", "dsRNA no.": 2, "raw ATP luminescence, replicate 1": 73053, "raw ATP luminescence, replicate 2": 57910, "call": "inactive"}
{"gene": "ver", "dsRNA no.": 1, "raw ATP luminescence, replicate 1": 67930, "raw ATP luminescence, replicate 2": 60850, "call": "inactive"}
{"gene": "MED7", "dsRNA no.": 1, "raw ATP luminescence, replicate 1": 55773, "raw ATP luminescence, replicate 2": 43877, "call": "inactive"}
{"gene": "Naa35", "dsRNA no.": 1, "raw ATP luminescence, replicate 1": 57090, "raw ATP luminescence, replicate 2": 61723, "call": "inactive"}
{"gene": "CG32816", "dsRNA no.": 1, "raw ATP luminescence, replicate 1": 2.13e5, "raw ATP luminescence, replicate 2": 2.07e5, "call": "inactive"}
{"gene": "CG42322", "dsRNA no.": 1, "raw ATP luminescence, replicate 1": 49817, "raw ATP luminescence, replicate 2": 47060, "call": "inactive"}
{"gene": "CG42322", "dsRNA no.": 2, "SD above plate mean": "at least 2 SD above plate mean", "raw ATP luminescence, replicate 1": 96800, "raw ATP luminescence, replicate 2": 1.06e5, "call": "inactive"}
{"gene": "CG42322", "dsRNA no.": 3, "raw ATP luminescence, replicate 1": 54180, "raw ATP luminescence, replicate 2": 50970, "call": "inactive"}
{"gene": "Rpt3", "dsRNA no.": 1, "raw ATP luminescence, replicate 1": 2.40e5, "raw ATP luminescence, replicate 2": 2.25e5, "call": "inactive"}
{"gene": "mop", "dsRNA no.": 1, "raw ATP luminescence, replicate 1": 22417, "raw ATP luminescence, replicate 2": 20943, "call": "inactive"}
{"gene": "Ccp84Ad", "dsRNA no.": 1, "raw ATP luminescence, replicate 1": 63820, "raw ATP luminescence, replicate 2": 53863, "call": "inactive"}
{"gene": "CG3520", "dsRNA no.": 1, "raw ATP luminescence, replicate 1": 56157, "raw ATP luminescence, replicate 2": 55587, "call": "inactive"}
{"gene": "CG31111", "dsRNA no.": 1, "raw ATP luminescence, replicate 1": 41510, "raw ATP luminescence, replicate 2": 35630, "call": "inactive"}
